In paper doi:10.1101/292318:
These are yes or no findings as the source states them, for the method shown. Some binding calls cover weakened binding; strength is not graded here. For some assays here: Tags and fused reporters may be left off the sequences shown. One block for each molecule: values may come before it.

Chains of the proteins cited; added tags and fusions are not shown. Residues count along the entry.
UniProt P01731, residues 28-247: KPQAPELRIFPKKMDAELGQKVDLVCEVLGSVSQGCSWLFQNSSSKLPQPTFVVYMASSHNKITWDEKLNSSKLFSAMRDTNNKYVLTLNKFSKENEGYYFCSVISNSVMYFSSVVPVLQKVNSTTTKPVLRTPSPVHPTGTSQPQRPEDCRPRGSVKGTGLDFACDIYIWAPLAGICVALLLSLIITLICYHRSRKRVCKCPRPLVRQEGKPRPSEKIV

Key:
[1] = molecular target: murine CD8α fused to eGFP or mCherry through a GSGGGS linker (murine) (UniProt P01731); assay: fluorescence cross-correlation spectroscopy
[2] = molecular target: human rhomboid protease RHBDL2 fused to eGFP or mCherry at its N-terminus (human) (UniProt Q9NX52); assay: fluorescence cross-correlation spectroscopy

binding [1]: binds
Molecule: murine CD8α fused to eGFP or mCherry through a GSGGGS linker (from UniProt P01731 28-247) (receptor)

binding [2]: no binding
B1: human rhomboid protease RHBDL2 fused to eGFP or mCherry at its N-terminus (enzyme, UniProt Q9NX52-1 1-303)
chain: MAAVHDLEMESMNLNMGREMKEELEEEEKMREDGGGKDRAKSKKVHRIVSKWMLPEKSRGTYLERANCFPPPVFIISISLAELAVFIYYAVWKPQKQWITLDTGILESPFIYSPEKREEAWRFISYMLVHAGVQHILGNLCMQLVLGIPLEMVHKGLRVGLVYLAGVIAGSLASSIFDPLRYLVGASGGVYALMGGYFMNVLVNFQEMIPAFGIFRLLIIILIIVLDMGFALYRRFFVPEDGSPVSFAAHIAGGFAGMSIGYTVFSCFDKALLKDPRFWIAIAAYLACVLFAVFFNIFLSPAN
